This note sets out measurements from patent US6162875A, “Low nitrosamine systems for rubber vulcanization” (Robinson Brothers Limited, priority 1992, dated 2000).

The data set can be described thus: Monsanto rheograph, accelerators in natural rubber at 160° C. The note with it: 0.8 parts accelerator, 2.5 parts sulphur.

As to “zinc diisononyldithiocarbamate [Example 1]”, the Max. torque is 32.5 kg·cm, the “Time to 50% cure” value was 2.52 min, the “Time to 90% cure” value is 5.40 min and the “Time to highest cure rate” value turned out to be 2.26 min. For the same substance, the “Time to two point rise” value is 2.04 min.
